Laboratory results taken from publication PMC11735090.
These are yes or no findings as the source states them, for the method shown. In cells and extracts the contact can be indirect. Some results given as binding are weak or reduced against the parent protein; the word gives no strength.

Chains of the proteins cited; added tags and fusions are not shown.
UniProt Q501J6: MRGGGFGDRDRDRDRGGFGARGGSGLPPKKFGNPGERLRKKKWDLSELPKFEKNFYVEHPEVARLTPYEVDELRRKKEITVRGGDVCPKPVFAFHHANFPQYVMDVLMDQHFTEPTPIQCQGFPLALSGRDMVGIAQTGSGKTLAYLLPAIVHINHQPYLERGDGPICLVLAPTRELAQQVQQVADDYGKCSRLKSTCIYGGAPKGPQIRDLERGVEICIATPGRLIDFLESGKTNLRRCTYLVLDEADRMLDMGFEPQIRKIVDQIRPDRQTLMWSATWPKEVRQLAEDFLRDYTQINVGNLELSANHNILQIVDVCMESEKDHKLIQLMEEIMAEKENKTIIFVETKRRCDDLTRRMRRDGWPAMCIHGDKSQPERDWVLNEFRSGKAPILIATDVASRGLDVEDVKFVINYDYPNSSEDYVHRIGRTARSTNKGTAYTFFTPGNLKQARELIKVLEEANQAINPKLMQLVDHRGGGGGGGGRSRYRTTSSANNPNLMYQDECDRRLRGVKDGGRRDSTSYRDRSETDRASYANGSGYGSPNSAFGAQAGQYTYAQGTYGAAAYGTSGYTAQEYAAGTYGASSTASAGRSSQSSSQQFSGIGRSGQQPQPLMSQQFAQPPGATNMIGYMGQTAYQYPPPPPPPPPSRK

Experiments:
[1] = biological target: T1, MEKK1 (Map3k1) C-terminus kinase domain-truncated mutant (1-1,222 aa) (mouse) (UniProt P53349); test: co-IP; IP with FLAG antibodies from lysates of 67NR-OVA cells expressing Map3k1-WT or Map3k1-mut, after 24 h coculture with OT-I splenocytes; Western blot for DDX17
T1 sequence: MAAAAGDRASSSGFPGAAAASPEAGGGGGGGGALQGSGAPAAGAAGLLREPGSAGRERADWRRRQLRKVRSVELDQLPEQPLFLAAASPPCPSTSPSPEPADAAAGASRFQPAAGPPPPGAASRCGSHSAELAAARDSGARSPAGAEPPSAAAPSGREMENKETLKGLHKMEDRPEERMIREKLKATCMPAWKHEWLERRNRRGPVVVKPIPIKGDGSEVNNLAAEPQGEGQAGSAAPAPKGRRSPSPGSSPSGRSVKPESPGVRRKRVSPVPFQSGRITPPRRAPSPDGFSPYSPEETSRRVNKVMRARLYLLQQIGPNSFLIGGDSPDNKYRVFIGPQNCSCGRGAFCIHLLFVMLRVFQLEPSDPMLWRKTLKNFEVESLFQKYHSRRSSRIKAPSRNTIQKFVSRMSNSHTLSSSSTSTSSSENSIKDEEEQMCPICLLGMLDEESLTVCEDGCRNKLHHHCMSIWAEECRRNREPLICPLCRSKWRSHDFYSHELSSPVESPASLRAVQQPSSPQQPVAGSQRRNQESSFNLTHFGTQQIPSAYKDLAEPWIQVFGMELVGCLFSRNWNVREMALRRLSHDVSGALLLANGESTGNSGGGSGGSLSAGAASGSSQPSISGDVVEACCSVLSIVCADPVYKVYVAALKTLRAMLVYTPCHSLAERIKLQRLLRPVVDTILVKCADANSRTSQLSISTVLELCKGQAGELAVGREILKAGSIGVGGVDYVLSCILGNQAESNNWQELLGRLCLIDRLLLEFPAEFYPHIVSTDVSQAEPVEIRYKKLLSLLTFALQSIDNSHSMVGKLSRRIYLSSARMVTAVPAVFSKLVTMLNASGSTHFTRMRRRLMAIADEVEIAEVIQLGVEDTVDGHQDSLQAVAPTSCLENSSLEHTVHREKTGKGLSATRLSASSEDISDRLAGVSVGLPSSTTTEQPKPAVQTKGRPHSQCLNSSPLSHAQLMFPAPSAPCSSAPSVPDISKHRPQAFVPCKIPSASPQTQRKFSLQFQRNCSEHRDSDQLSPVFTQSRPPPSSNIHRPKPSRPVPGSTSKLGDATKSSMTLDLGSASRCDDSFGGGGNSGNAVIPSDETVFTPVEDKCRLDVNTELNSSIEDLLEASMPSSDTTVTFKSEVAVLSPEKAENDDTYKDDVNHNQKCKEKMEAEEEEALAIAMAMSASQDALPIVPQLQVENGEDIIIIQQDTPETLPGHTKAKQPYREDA

[2] = biological target: T2, MEKK1 (gene product of Map3k1), full-length wild type (mouse) (UniProt P53349); test: as above
T2 sequence: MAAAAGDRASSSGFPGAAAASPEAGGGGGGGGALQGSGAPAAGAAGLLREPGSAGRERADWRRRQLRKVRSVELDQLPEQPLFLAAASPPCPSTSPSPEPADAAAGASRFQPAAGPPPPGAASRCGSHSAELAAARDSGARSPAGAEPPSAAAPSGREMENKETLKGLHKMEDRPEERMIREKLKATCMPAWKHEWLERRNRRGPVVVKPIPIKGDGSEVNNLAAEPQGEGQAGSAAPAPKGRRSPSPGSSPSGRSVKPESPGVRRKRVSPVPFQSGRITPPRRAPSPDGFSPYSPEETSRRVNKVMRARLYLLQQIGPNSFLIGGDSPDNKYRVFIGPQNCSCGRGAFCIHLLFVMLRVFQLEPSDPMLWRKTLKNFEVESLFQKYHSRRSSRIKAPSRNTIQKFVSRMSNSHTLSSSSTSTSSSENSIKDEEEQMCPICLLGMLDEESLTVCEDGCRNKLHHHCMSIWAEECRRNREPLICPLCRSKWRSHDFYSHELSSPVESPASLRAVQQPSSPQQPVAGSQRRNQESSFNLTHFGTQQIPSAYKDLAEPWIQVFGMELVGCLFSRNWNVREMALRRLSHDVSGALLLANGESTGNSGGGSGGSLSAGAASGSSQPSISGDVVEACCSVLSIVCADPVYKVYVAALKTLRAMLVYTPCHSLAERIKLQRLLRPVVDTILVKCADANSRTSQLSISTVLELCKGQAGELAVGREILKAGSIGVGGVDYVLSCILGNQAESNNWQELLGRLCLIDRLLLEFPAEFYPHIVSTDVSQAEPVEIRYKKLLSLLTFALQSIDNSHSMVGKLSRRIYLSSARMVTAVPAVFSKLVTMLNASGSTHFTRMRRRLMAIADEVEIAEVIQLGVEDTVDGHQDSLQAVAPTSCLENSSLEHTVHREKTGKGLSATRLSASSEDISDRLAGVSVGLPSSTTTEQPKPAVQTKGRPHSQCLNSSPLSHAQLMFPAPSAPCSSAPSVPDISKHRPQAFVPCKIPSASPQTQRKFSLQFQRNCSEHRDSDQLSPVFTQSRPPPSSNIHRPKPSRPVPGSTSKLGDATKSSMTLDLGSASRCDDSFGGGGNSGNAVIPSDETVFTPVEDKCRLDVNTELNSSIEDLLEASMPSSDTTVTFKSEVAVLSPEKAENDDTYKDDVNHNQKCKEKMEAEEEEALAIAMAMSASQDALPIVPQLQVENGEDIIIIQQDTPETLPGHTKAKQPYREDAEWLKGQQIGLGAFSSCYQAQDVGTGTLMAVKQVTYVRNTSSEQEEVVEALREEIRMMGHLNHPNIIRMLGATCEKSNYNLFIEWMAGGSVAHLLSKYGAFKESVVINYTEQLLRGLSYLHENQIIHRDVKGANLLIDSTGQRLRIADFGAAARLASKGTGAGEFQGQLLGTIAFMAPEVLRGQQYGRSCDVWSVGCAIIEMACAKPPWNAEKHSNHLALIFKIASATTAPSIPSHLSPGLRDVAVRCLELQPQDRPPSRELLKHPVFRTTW

“DEAD box helicase 17 (DDX17) (from UniProt Q501J6 1-650)” was tested, and the binding [1] was “binds” and the binding [2] was “binds”.
